Source: paper PMC12643531
Results are given in words; binding and its absence hold for the method and conditions named. In cells and extracts the contact can be indirect. These calls come from enrichment with a bait or labelling near it, and not all partners need be listed. Tags and fused reporters may be left off the sequences shown. Values belong to the binder of their own block, whether it stands above or below them.

Target: T1, LEUNIG_HOMOLOG (LUH)-GFP (Arabidopsis thaliana) (UniProt O48847)
T1 sequence: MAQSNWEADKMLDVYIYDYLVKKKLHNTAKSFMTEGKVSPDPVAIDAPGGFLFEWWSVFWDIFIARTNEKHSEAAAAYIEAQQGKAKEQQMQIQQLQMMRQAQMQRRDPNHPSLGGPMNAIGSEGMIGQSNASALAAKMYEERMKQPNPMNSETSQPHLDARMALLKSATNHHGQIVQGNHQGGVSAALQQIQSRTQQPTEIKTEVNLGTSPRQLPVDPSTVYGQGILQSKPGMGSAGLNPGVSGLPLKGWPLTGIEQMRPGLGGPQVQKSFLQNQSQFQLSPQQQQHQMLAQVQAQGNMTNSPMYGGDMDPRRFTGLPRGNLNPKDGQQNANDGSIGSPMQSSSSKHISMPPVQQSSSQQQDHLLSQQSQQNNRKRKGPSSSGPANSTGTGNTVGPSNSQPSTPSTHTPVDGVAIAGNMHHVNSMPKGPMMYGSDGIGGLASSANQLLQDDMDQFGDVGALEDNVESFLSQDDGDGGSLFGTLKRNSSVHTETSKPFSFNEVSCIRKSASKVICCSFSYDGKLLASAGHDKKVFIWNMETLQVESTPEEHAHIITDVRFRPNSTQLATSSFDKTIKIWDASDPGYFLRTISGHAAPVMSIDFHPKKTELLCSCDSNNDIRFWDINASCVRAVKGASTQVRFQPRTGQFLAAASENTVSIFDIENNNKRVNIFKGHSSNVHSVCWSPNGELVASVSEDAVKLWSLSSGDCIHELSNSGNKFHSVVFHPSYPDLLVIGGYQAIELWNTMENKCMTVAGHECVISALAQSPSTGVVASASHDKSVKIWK
Experiment: affinity purification with mass spectrometry; LUH-GFP precipitated with anti-GFP micro beads (4°C, 1 h) from nuclear protein extracts of FIS inflorescences at 0, 2, 4 and 8 DAI; LC-MS/MS; enrichment against input, P < 0.05 and FC > 4; three biological replicates

binding: binds
B1: TCP5 (protein, UniProt Q9FME3 1-360)
chain: MRSGECDEEEIQAKQERDQNQNHQVNLNHMLQQQQPSSVSSSRQWTSAFRNPRIVRVSRTFGGKDRHSKVCTVRGLRDRRIRLSVPTAIQLYDLQDRLGLSQPSKVIDWLLEAAKDDVDKLPPLQFPHGFNQMYPNLIFGNSGFGESPSSTTSTTFPGTNLGFLENWDLGGSSRTRARLTDTTTTQRESFDLDKGKWIKNDENSNQDHQGFNTNHQQQFPLTNPYNNTSAYYNLGHLQQSLDQSGNNVTVAISNVAANNNNNLNLHPPSSSAGDGSQLFFGPTPPAMSSLFPTYPSFLGASHHHHVVDGAGHLQLFSSNSNTASQQHMMPGNTSLIRPFHHLMSSNHDTDHHSSDNESDS

binding: binds
B3: SQUAMOSA Promoter-Binding Protein-Like 9 (SPL9) (protein, UniProt Q700W2 1-375)
chain: MEMGSNSGPGHGPGQAESGGSSTESSSFSGGLMFGQKIYFEDGGGGSGSSSSGGRSNRRVRGGGSGQSGQIPRCQVEGCGMDLTNAKGYYSRHRVCGVHSKTPKVTVAGIEQRFCQQCSRFHQLPEFDLEKRSCRRRLAGHNERRRKPQPASLSVLASRYGRIAPSLYENGDAGMNGSFLGNQEIGWPSSRTLDTRVMRRPVSSPSWQINPMNVFSQGSVGGGGTSFSSPEIMDTKLESYKGIGDSNCALSLLSNPHQPHDNNNNNNNNNNNNNNTWRASSGFGPMTVTMAQPPPAPSQHQYLNPPWVFKDNDNDMSPVLNLGRYTEPDNCQISSGTAMGEFELSDHHHQSRRQYMEDENTRAYDSSSHHTNWSL

binding: binds
B4: TCP4 (protein, UniProt Q8LPR5 1-420)
chain: MSDDQFHHPPPPSSMRHRSTSDAADGGCGEIVEVQGGHIVRSTGRKDRHSKVCTAKGPRDRRVRLSAHTAIQFYDVQDRLGFDRPSKAVDWLIKKAKTSIDELAELPPWNPADAIRLAAANAKPRRTTAKTQISPSPPPPQQQQQQQQLQFGVGFNGGGAEHPSNNESSFLPPSMDSDSIADTIKSFFPVIGSSTEAPSNHNLMHNYHHQHPPDLLSRTNSQNQDLRLSLQSFPDGPPSLLHHQHHHHTSASASEPTLFYGQSNPLGFDTSSWEQQSSEFGRIQRLVAWNSGGGGGATDTGNGGGFLFAPPTPSTTSFQPVLGQSQQLYSQRGPLQSSYSPMIRAWFDPHHHHQSISTDDLNHHHHLPPPVHQSAIPGIGFASGEFSSGFRIPARFQGQEEEQHDGLTHKPSSASSISRH

binding: binds
B8: YIN YANG 1 (YY1) (protein, UniProt Q2V3L3 1-387)
chain: MDHQNYQYQNPFERRPILKSKAPAVKWIKEWVPQDIVATGGKCHLHKWVTEDTFSRLKEKEKEPDVPEPEPEPTTEILFLCSYDGCGKTFFDVSALRKHSHIHGERQYVCDQEGCGKKFLDSSKLKRHYLIHTGERNYICTYEGCGKAFSLDFNLRSHMKTHSQENYHICPYSGCVKRYAHEYKLKNHVAAYHEKNGGGETPKYTPPAEKVLRTVKTPATVCGPSSDRPYACPYEGCEKAYIHEYKLKLHLKREHPGHLQEENADTPTLNKHNGNDRNEIDDGSDQDVYRKHASNGKGQTHKQQSRAKPNMRTPPAKVGKKGSTSSPAKARIAKKPWQAKETFEEVEREEEEDSEETEEDRDNVEDGWRFGENNEDDDDDEETEYED

binding: binds
B9: … (PAN) (protein, UniProt Q9SX27 1-452)
chain: MQSSFKTVPFTPDFYSQSSYFFRGDSCLEEFHQPVNGFHHEEAIDLSPNVTIASANLHYTTFDTVMDCGGGGGGGLRERLEGGEEECLDTGQLVYQKGTRLVGGGVGEVNSSWCDSVSAMADNSQHTDTSTDIDTDDKTQLNGGHQGMLLATNCSDQSNVKSSDQRTLRRLAQNREAARKSRLRKKAYVQQLENSRIRLAQLEEELKRARQQGSLVERGVSADHTHLAAGNGVFSFELEYTRWKEEHQRMINDLRSGVNSQLGDNDLRVLVDAVMSHYDEIFRLKGIGTKVDVFHMLSGMWKTPAERFFMWLGGFRSSELLKILGNHVDPLTDQQLIGICNLQQSSQQAEDALSQGMEALQQSLLETLSSASMGPNSSANVADYMGHMAMAMGKLGTLENFLRQADLLRQQTLQQLHRILTTRQAARAFLVIHDYISRLRALSSLWLARPRD

binding: binds
B11: SPL15 (protein, UniProt Q9M2Q6 1-354)
chain: MELLMCSGQAESGGSSSTESSSLSGGLRFGQKIYFEDGSGSRSKNRVNTVRKSSTTARCQVEGCRMDLSNVKAYYSRHKVCCIHSKSSKVIVSGLHQRFCQQCSRFHQLSEFDLEKRSCRRRLACHNERRRKPQPTTALFTSHYSRIAPSLYGNPNAAMIKSVLGDPTAWSTARSVMQRPGPWQINPVRETHPHMNVLSHGSSSFTTCPEMINNNSTDSSCALSLLSNSYPIHQQQLQTPTNTWRPSSGFDSMISFSDKVTMAQPPPISTHQPPISTHQQYLSQTWEVIAGEKSNSHYMSPVSQISEPADFQISNGTTMGGFELYLHQQVLKQYMEPENTRAYDSSPQHFNWSL

Continued, binder first:

B2: SPL8 (protein, UniProt Q8GXL3 1-333)
chain: MLDYEWDNPSSIVLSGDERNPDSDPTRSSFSFFDPISHYNNDHRHITISPPLLSSFSNQQQQHHLTLYGQTNSNNQFLHHHHHHHSLYGSTTTTTPYGASDPIYHPHSSAPPASLFSYDQTGPGSGSGSSYNFLIPKTEVDFTSNRIGLNLGGRTYFSAADDDFVSRLYRRSRPGESGMANSLSTPRCQAEGCNADLSHAKHYHRRHKVCEFHSKASTVVAAGLSQRFCQQCSRFHLLSEFDNGKRSCRKRLADHNRRRRKCHQSASATQDTGTGKTTPKSPNDSGVKASSSPSSNAPPTISLECFRQRQFQTTASSSTSASSSSNSMFFSSG
binding: binds

B5: SHOOT … (STM) (protein, UniProt Q38874 1-382)
chain: MESGSNSTSCPMAFAGDNSDGPMCPMMMMMPPIMTSHQHHGHDHQHQQQEHDGYAYQSHHQQSSSLFLQSLAPPQGTKNKVASSSSPSSCAPAYSLMEIHHNEIVAGGINPCSSSSSSASVKAKIMAHPHYHRLLAAYVNCQKVGAPPEVVARLEEACSSAAAAAASMGPTGCLGEDPGLDQFMEAYCEMLVKYEQELSKPFKEAMVFLQRVECQFKSLSLSSPSSFSGYGETAIDRNNNGSSEEEVDMNNEFVDPQAEDRELKGQLLRKYSGYLGSLKQEFMKKRKKGKLPKEARQQLLDWWSRHYKWPYPSEQQKLALAESTGLDQKQINNWFINQRKRHWKPSEDMQFVVMDATHPHHYFMDNVLGNPFPMDHISSTML
binding: binds

B6: AINTEGUMENTA (ANT) (protein, UniProt Q38914 1-555)
chain: MKSFCDNDDNNHSNTTNLLGFSLSSNMMKMGGRGGREAIYSSSTSSAATSSSSVPPQLVVGDNTSNFGVCYGSNPNGGIYSHMSVMPLRSDGSLCLMEALNRSSHSNHHQDSSPKVEDFFGTHHNNTSHKEAMDLSLDSLFYNTTHEPNTTTNFQEFFSFPQTRNHEEETRNYGNDPSLTHGGSFNVGVYGEFQQSLSLSMSPGSQSSCITGSHHHQQNQNQNHQSQNHQQISEALVETSVGFETTTMAAAKKKRGQEDVVVVGQKQIVHRKSIDTFGQRTSQYRGVTRHRWTGRYEAHLWDNSFKKEGHSRKGRQVYLGGYDMEEKAARAYDLAALKYWGPSTHTNFSAENYQKEIEDMKNMTRQEYVAHLRRKSSGFSRGASIYRGVTRHHQHGRWQARIGRVAGNKDLYLGTFGTQEEAAEAYDVAAIKFRGTNAVTNFDITRYDVDRIMSSNTLLSGELARRNNNSIVVRNTEDQTALNAVVEGGSNKEVSTPERLLSFPAIFALPQVNQKMFGSNMGGNMSPWTSNPNAELKTVALTLPQMPVFAAWADS
binding: binds

B7: SEUSS-LIKE2 (SLK2) (protein, UniProt Q94BP0 1-816)
chain: MASSTSGIFFQGDDESQSFINSHLTSSYGNSSNSAPGCGGPTGGYHNLSMVSGDMHNPVMMSVSTPGPSAGASSLVTDANSGLSGGGPHLQRSASINNESYMRLPASPMSFSSNNISISGSSVVDGSTVVQRHDPSVQLGGSSATSLPTSQTNQIPLSMARRASESFFQDPNNLTQARKKPRLDSKQDDALQQQILRQWLQRQDILQQQQQQQQQGQNPQFQILLQQQKLRQQQQYLQSLPPLQRVQLQQQQQVQQQQQLQQQHQQQQQQLQQQGMQMQLTGGPRPYENSVCARRLMQYLYHQRQRPSESSIVYWRKFVTEYFSPRAKKRWCLSHYDNVGHSALGVSPQAATDEWQCDLCGSKSGRGFEATFDVLPRLNEIKFASGVLDELLYLGVPSERRYGSGIMVLEYGKAVQESVYEHIRVVREGHLRIIFSQELKILSWEFCTRRHEELLPRRLVAPQVNQLLQVAEKCQSTIDQSGSDGIHQQDLQANSNMVMAAGRQLAKSLESHSLNDLGFSKRYVRCLQISEVVSSMKDMIDFCRDQKVGPIEALKSYPYRMKAGKPQMQEMEQLAAARGLPPDRNSLNKLMALRNSGINIPMNNMSGQGSLPGSAQAAAFALTNYQSMLMKQNHLNSDLNNTTIQQEPSRNRSASPSYQGTSPLLPGFVHSPSISGVSSHLSPQRQMPSSSYNGSTQQYHQQPPSCSSGNQTLEQQMIHQIWQQMANSNGGSGQQQQSLSGQNMMNCNTNMGRNRTDYVPAAAETPSTSNRFRGIKGLDQSQNLEGIISNTSLNFGNNGVFSNEVDESMGGYSWKS
binding: binds

B10: B… (BLR) (protein, UniProt Q9LZM8 1-575)
chain: MADAYEPYHVLQQSRRDKLRIPSLDSHFHFHPPPPPSSGGGGGVFPLADSDFLAAGGFHSNNNNNHISNPSYSNFMGFLGGPSSSSSTAVAVAGDHSFNAGLSSGDVLVFKPEPLSLSLSSHPRLAYDLVVPGVVNSGFCRSAGEANAAAVTIASRSSGPLGPFTGYASILKGSRFLKPAQMLLDEFCNVGRGIYTDKVIDDDDSSLLFDPTVENLCGVSDGGGGDNGKKKSKLISMLDEVYKRYKQYYEQLQAVMGSFECVAGLGHAAPYANLALKALSKHFKCLKNAITDQLQFSHNNKIQQQQQCGHPMNSENKTDSLRFGGSDSSRGLCSAGQRHGFPDHHAPVWRPHRGLPERAVTVLRAWLFDHFLHPYPTDTDKLMLAKQTGLSRNQVSNWFINARVRVWKPMVEEIHMLETRQSQRSSSSSWRDERTSTTVFPDNSNNNPSSSSAQQRPNNSSPPRRARNDDVHGTNNNNSYVNSGSGGGSAVGFSYGIGSSNVPVMNSSTNGGVSLTLGLHHQIGLPEPFPMTTAQRFGLDGGSGDGGGGYEGQNRQFGRDFIGGSNHQFLHDFVG
binding: binds
